These are yes or no findings as the source states them, for the method shown. Some entries that bind do so weakly or less than the wild type.
How the values were obtained:
[1] = target: NRP2A peptide (biotinylated) (human); test: BLI, isoform peptide on sensor, 50 nM antibody
[2] = target: mNRP2A peptide (biotinylated) (mouse); test: BLI, peptide on sensor, 50 nM antibody
[3] = target: NRP2A peptide (biotinylated) (human); test: BLI, peptide on sensor, 50 nM antibody
[4] = target: human NRP2a v2 expressed on Expi293F cells (human) (UniProt O60462); test: flow cytometry, Expi293F cells transfected with the target, fluorescent anti-mouse secondary; MFI signal relative to mock-transfected cells
[5] = target: mNRP2A peptide (biotinylated) (mouse); test: BLI, mouse peptide on sensor, 50 nM antibody
[6] = target: NRP2A peptide (biotinylated) (human); test: BLI, peptide on sensor
[7] = target: NRP2A peptide (biotinylated) (human); test: peptide binding (Examples 4 and 5)
[8] = target: mNRP2A peptide (biotinylated) (mouse); test: peptide ELISA
[9] = target: NRP2A peptide (biotinylated) (human); test: peptide ELISA

Amino acid sequences for entries named in this document (tags omitted). A change or cut given only in a name is not applied to a line headed by its entry.
UniProt O60462: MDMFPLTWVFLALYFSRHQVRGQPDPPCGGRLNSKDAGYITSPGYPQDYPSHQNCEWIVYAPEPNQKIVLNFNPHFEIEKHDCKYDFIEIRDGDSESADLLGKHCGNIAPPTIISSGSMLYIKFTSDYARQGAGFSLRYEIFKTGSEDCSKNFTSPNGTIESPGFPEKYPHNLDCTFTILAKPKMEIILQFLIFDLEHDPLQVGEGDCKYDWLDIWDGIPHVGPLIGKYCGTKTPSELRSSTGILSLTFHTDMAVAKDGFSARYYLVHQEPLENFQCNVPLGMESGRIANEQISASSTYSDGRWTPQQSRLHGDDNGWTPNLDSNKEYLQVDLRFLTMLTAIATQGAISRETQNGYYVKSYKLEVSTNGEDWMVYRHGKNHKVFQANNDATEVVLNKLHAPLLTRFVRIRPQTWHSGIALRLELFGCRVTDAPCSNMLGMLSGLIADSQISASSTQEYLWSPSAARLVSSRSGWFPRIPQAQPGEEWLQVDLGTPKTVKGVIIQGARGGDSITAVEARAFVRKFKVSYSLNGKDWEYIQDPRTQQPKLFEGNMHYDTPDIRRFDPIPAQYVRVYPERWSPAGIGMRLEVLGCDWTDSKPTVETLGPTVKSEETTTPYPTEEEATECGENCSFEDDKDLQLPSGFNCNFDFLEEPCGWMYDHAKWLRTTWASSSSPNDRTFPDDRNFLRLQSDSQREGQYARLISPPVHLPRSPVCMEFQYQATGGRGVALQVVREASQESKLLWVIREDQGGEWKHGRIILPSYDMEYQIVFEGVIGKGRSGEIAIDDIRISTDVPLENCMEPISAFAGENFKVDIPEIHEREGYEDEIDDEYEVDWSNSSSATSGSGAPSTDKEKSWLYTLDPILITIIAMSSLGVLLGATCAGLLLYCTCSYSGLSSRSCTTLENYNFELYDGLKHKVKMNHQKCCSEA

Measured: binding

B1: aNRP2-409v3 (antibody, V domains shown)
VH: EVQFVETGGGLVQPKGSLKLSCAASGFTFNTNAMNWVRQAPGKGLEWVARIRTKSNNYATYYADSVKDRFTISRDDSQNILYLQMNNLKTEDTAMYYCVTLDSSGYVWFAYWGQGTLVTVSA
VL: DIQMTQSPSSLSASLGERVSLTCRASQDIGSRLNWLQQEPDGTIKRLIYATSSLDSGVPKRFSGSRSGSDYSLTISSLESEDFVDYYCLQYASSPYTFGGGTKLEIK
binds: [1] | [2] | [3] | [4] | [5] | [6] | [7] | [8] | [9]
